In PubChem BioAssay AID743255 (National Center for Advancing Translational Sciences (NCATS), 2014):
Hit rate of the full screen: of about 390,000 compounds, about 910 (0.23%) were called active. The shares of active, inactive and inconclusive entries below differ from those in the screen. Calls follow the shape of the dose curve; as a rule, active = well fitted inhibition curve with a large enough effect; inconclusive = small, poorly fitted or top-dose-only effect; inactive = no such curve, though single readings can be large or run the other way. Potencies of inconclusive entries are doubtful fits and often do not repeat.

Sequences of proteins named here, by UniProt entry; tags and fusion partners are left off. A change or cut given only in a name is not applied to a line headed by its entry.
UniProt O94782: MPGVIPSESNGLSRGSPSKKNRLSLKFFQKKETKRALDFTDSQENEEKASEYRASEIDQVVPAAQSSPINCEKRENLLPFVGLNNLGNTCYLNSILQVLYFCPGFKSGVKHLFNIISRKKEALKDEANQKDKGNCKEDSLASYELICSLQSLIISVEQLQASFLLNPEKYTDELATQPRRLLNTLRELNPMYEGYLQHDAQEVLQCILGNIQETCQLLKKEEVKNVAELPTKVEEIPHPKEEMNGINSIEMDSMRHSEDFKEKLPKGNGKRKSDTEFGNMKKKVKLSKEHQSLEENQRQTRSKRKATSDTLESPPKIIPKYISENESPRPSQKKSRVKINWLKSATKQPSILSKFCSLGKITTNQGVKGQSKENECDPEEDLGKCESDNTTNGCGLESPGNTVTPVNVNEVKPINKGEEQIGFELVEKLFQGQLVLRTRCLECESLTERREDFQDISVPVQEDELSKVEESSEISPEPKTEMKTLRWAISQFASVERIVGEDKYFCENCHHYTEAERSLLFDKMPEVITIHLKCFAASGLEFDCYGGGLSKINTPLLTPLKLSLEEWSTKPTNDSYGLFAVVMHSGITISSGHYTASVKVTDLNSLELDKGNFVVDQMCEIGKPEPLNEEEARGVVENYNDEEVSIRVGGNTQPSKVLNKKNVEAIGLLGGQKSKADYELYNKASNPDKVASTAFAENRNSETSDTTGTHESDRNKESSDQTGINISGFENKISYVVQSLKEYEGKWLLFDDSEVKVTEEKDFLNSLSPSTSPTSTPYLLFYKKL

Each compound was assayed against Ubiquitin carboxyl-terminal hydrolase 1 (Homo sapiens) (UniProt O94782) (assay: Inhibitors of USP1/UAF1: Primary Screen). Settings: recombinant USP1/UAF1, Ub-Rhodamine cleavage fluorescence; series mostly up to 57.1 µM.
Procedure, shortened: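 In this screen, compounds sit with the deubiquitinase complex (1nM) for 15 min at room temperature before Ub-Rho is added at 150nM final. Fluorescence rise is then followed for 6 reads every 60 seconds.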
Also: nearly all actives have a fitted effect of over 60% in size.
Potency is read from the fitted curve at half-maximal effect.

Potency, inconclusive:
C[C@H]1CN([C@@H](C)CO)C(=O)CCCn2nncc2CO[C@@H]1CN(C)C(=O)Nc1ccc2c(c1)OCO2 0.0282 µM [inhibitor, full curve, poor fit]
CC(C(=O)Nc1ccc(C(=O)O)c(O)c1)N1C(=O)/C(=C\c2ccco2)SC1=S (stereo not drawn) 31.6 µM [inhibitor, partial curve]
CC(=O)c1ccc(NC(=O)Nc2ncn(Cc3cccc(C)c3)n2)cc1 31.6 µM [inhibitor, partial curve]
CN(C)S(=O)(=O)c1cccc(-c2nn(-c3ccccc3)cc2/C=C2\SC(=S)NC2=O)c1 44.7 µM [inhibitor, partial curve, poor fit]
CSCCC(NC=O)C(=O)NC(C)C(=O)O (stereo not drawn) 28.2 µM [inhibitor, single point]
O=C(Nc1ccc2[nH]c(=S)sc2c1)Nc1ccccc1F 35.5 µM [inhibitor, partial curve]
Cc1ccc2c(c1)c(C)cc(=O)n2CCC(=O)O 0.891 µM [inhibitor, full curve, poor fit]
CC(C)(C)c1ccc(-c2nnc(SCCC#N)n2C2CCCC2)cc1 1 µM [inhibitor, full curve, poor fit]
CCOc1ccc(OCC)c(NC(=O)C2CCN(c3cnccn3)CC2)c1 4.47 µM [inhibitor, full curve, poor fit]
COc1ccc(NC(=O)CC2Oc3ccccc3NC2=O)cc1 (stereo not drawn) 2 µM [inhibitor, full curve, poor fit]
O=C(/C(=C(\[O-])c1ccccc1)[n+]1ccc2ccccc2c1)c1ccc(Cl)cc1 31.6 µM [inhibitor, partial curve]
CCn1c(C)c(C)c2cc(C(=O)N3CCc4ccccc4C3)ccc21 39.8 µM [inhibitor, partial curve]
CCCCn1nc2cc(C(=O)NC3CCCc4ccccc43)ccc2c1OCC (stereo not drawn) 3.16 µM [inhibitor, full curve]
CC1CC(C)CN(C(=O)c2cc3c(=O)n4ccccc4nc3s2)C1 (stereo not drawn) 25.1 µM [inhibitor, partial curve]
O=C(NCCc1nc2ccccc2[nH]1)c1cccc(Br)c1 5.62 µM [inhibitor, partial curve, poor fit]
Cc1ccccc1CSc1nc2cccnc2n1Cc1ccc(C(=O)NCCc2cccs2)cc1 11.2 µM [inhibitor, partial curve]
COc1ccc(N2CCN(S(=O)(=O)CCNC(=O)COc3ccccc3C)CC2)cc1 0.282 µM [inhibitor, full curve]
Cc1[nH]c2ccc(C(=O)N3CCN(c4cccc(Cl)c4)CC3)cc2c1C 89.1 µM [inhibitor, partial curve, poor fit]
Cc1cc(-c2ccc(Br)cc2)n2nc(C)cc2n1 15.8 µM [inhibitor, partial curve, poor fit]
O=C(c1ccccc1)c1ccc(Sc2ccc([N+](=O)[O-])cc2)cc1 15.8 µM [inhibitor, partial curve, poor fit]
CC12CN(NC(=O)c3ccc(Cl)cc3)C3(C#N)CC1CCC23C (stereo not drawn) 0.282 µM [inhibitor, full curve, poor fit]
C[C@H](NC(=O)c1nc[nH]c1C(=O)N1CCc2ccccc2C1)C(=O)OCc1ccccc1 44.7 µM [inhibitor, partial curve, poor fit]
CCN(CC)c1ccc(C2NCC(c3ccc([N+](=O)[O-])cc3)O2)cc1 (stereo not drawn) 5.62 µM [inhibitor, full curve, poor fit]
COc1cccc(C(=O)NCCSc2c(-c3ccc(F)cc3)[nH]c3ccccc23)c1OC 8.91 µM [inhibitor, partial curve, poor fit]
Cc1ccc(S(=O)(=O)c2cn(CC(=O)Nc3ccc(C)c(Cl)c3)c3ccc(C)cc3c2=O)cc1 22.4 µM [inhibitor, partial curve, poor fit]
CCOC(=O)c1ccc(NC(=O)c2nc[nH]c2C(=O)NC)cc1 70.8 µM [inhibitor, partial curve, poor fit]
Cc1ccc(C(=O)NCCn2c(C)cc3ccccc32)cc1C 44.7 µM [inhibitor, partial curve, poor fit]
CCN1C(=O)[C@H]2[C@@H](c3ccc(C)cc3)N3C(=O)N(c4cccc(C)c4)C(=O)[C@@]3(Cc3ccccc3)[C@H]2C1=O 0.355 µM [inhibitor, full curve, poor fit]
COc1cc2c(=O)n(CCC(=O)NCC3CCCO3)c(=O)n(CC(=O)Nc3ccc(C)cc3)c2cc1OC (stereo not drawn) 0.794 µM [inhibitor, full curve, poor fit]
Cc1ccccc1-n1nnnc1SCC(=O)NC1CC1 8.91 µM [inhibitor, partial curve, poor fit]
CC(C)(C)S(=O)(=O)N1C[C@H]2CC/C=C\C/C(c3ccccc3)=C\2[C@@H]1CCO 44.7 µM [inhibitor, partial curve, poor fit]
COc1ccc(CNc2ncnc3onc(C)c23)cc1 11.2 µM [inhibitor, partial curve, poor fit]
COc1cc(C(=O)NC(=S)Nc2ccc3ccccc3c2)cc(OC)c1OC 20 µM [inhibitor, partial curve]
CC1CCN(c2nc3ccc(C(=O)N4CCN(Cc5ccccc5)CC4)cc3s2)CC1 0.282 µM [inhibitor, full curve, poor fit]
Cc1ccc(S(=O)(=O)N2CCCc3cc(NS(=O)(=O)c4ccc(F)c(C)c4)ccc32)cc1 35.5 µM [inhibitor, partial curve]
COc1ccc(-c2cn3nc(N4CCC(C(=O)NCc5ccccc5F)CC4)sc3n2)cc1 0.1 µM [inhibitor, full curve, poor fit]
O=C1C(NS(=O)(=O)c2cccs2)=C(N2CCN(c3ccccc3)CC2)C(=O)c2ccccc21 44.7 µM [inhibitor, partial curve]
CCOc1ccc(-n2c(CCC(=O)O)ccc2-c2ccc(Br)cc2)cc1 70.8 µM [inhibitor, partial curve, poor fit]
Cc1ccc([C@@H]2[C@@H]3C(=O)N(C)C(=O)[C@@H]3[C@]3(Cc4ccccc4)C(=O)N(CCO)CC(=O)N23)o1 79.4 µM [inhibitor, partial curve, poor fit]
CCn1nnc2cc(C(=O)N3CCC(C(=O)OC)CC3)ccc21 39.8 µM [inhibitor, partial curve, poor fit]
COC(=O)C(Cc1c[nH]c2ccccc12)NC(=O)COc1ccc(Cl)cc1Cl (stereo not drawn) 7.08 µM [inhibitor, partial curve]
c1cnc(SCCOc2ccc3c(c2)CCC3)nc1 56.2 µM [inhibitor, partial curve, poor fit]
Cc1ccccc1/C=C1\Oc2ccccc2C1=O 50.1 µM [inhibitor, partial curve, poor fit]
CCOC(=O)/C=c1/s/c(=C\c2c(OC)ccc3ccccc23)c(=O)n1CC(=O)NCC1CCCO1 (stereo not drawn) 35.5 µM [inhibitor, partial curve]
COC(=O)c1ccc(COC(=O)C2CCN(S(=O)(=O)c3c(Cl)cccc3Cl)CC2)o1 5.62 µM [inhibitor, full curve]

Looked up by compound from the list above:
Potency, inconclusive:
Cc1ccc2c(c1)c(C)cc(=O)n2CCC(=O)O 0.891 µM [inhibitor, full curve, poor fit]
CC12CN(NC(=O)c3ccc(Cl)cc3)C3(C#N)CC1CCC23C (stereo not drawn) 0.282 µM [inhibitor, full curve, poor fit]

Following part:

Potency, active:
COc1cccc2c1NC(C(=O)O)C1CC=CC21 (stereo not drawn) 25.1 µM

Potency, inactive:
Clc1ccc2c(NNc3ccccc3Cl)ccnc2c1
O=C1C2C(C(=O)N1CC1CCCO1)C1C=CC2C12CC2 (stereo not drawn)
COC(=O)c1ccc(OCC2c3cc(OC)c(OC)cc3CCN2C(=O)c2ccccc2F)cc1 (stereo not drawn)
CC(C)OC1(c2ccccc2)OC(=O)c2ccccc21 (stereo not drawn)
Cc1ccc(N2CCN(C(=O)c3noc4c3COc3ccc(C)cc3-4)CC2)c(C)c1
COc1ccc(Cl)cc1N(C)C(=O)C(=O)Nc1ccc2nc3n(c(=O)c2c1)CCCCC3
C=CCOc1ccc(C2C(C(=O)c3ccco3)=C(O)C(=O)N2c2nnc(C)s2)cc1 (stereo not drawn)
Cc1ccc2oc(=O)n(CCNC(=O)Nc3ccc(C)c(F)c3)c2c1
COc1ccccc1C1C=C(c2ccc(Cl)cc2)Nc2nc(-c3ccc(Cl)cc3)nn21 (stereo not drawn)
O=C(O)c1cnn(-c2nc(-c3cccc(F)c3)cs2)c1C(F)(F)F
FC(F)(F)c1cccc(NC(=S)Nc2ccc(Cl)c(Cl)c2)c1
CCCCc1ccc(/C=C2/C(=O)ON=C2c2ccccc2)s1
Cc1ccc(S(=O)(=O)C(CNC(=O)C(=O)NCc2ccc(Cl)cc2)c2cccs2)cc1 (stereo not drawn)
CN(C)CCNC(=O)c1ccc(-n2c(-c3ccccc3)cc3c2CCCC3)cc1
C/C(=N/NS(=O)(=O)c1cccc([N+](=O)[O-])c1)c1ccncc1
O=C(CCCSc1nc2ccccc2[nH]1)Nc1nnc(C2CC2)s1
Cc1ccc(-c2nc3cccnc3s2)cc1NC(=O)C(C)C

As a short view, part of the list above:
Potency, inactive:
O=C1C2C(C(=O)N1CC1CCCO1)C1C=CC2C12CC2 (stereo not drawn)
COC(=O)c1ccc(OCC2c3cc(OC)c(OC)cc3CCN2C(=O)c2ccccc2F)cc1 (stereo not drawn)
CC(C)OC1(c2ccccc2)OC(=O)c2ccccc21 (stereo not drawn)
